Laboratory results reported in the supplement of paper PMC8256030.
Several values for one entry are separate records, joined by “and”; a condition that tells them apart may be missing. Equal values may be shown once. The list shows a part of the results. This data set is noisy: repeats of one test often differ as much as different tests do.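 HEK293T cells were given each compound shortly before transfection with a reporter in which red mCherry is followed by the SARS-CoV-2 frameshift element and then GFP in the −1 frame, so GFP appears only after frameshifting.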

Assays:
[1] = system: SARS-CoV-2 -1 PRF reporter mCherry-FSE-GFP(-1); experiment: mCherry (red) intensity as percent of control; higher = higher upstream reporter expression; settings: 10 µM; 24 h; HEK293T
[2] = system: SARS-CoV-2 -1 PRF reporter mCherry-FSE-GFP(-1); experiment: percent effect, decrease of GFP/mCherry ratio (-1 PRF reporter) relative to controls; higher = stronger frameshift inhibition; settings: 10 µM; 24 h; HEK293T

| SMILES | mCherry [1] | percent effect [2] |
| --- | --- | --- |
| COc1ccc2c(c1)c(CC(=O)NO)c(C)n2C(=O)c1ccc(Cl)cc1 [oxametacin] | 53% | -4.72% |
| CCC[C@@]1(CCc2ccccc2)CC(O)=C([C@H](CC)c2cccc(NS(=O)(=O)c3ccc(C(F)(F)F)cn3)c2)C(=O)O1 [tipranavir] | 94.5% | 0.566% |
| CN1C(C(=O)Nc2ccccn2)=C(O)c2sc(Cl)cc2S1(=O)=O | 112% | -1.94% |
| CCCCC[C@H](O)/C=C/[C@@H]1[C@H]2C/C(=C/CCCC(=O)O)O[C@H]2C[C@H]1O [epoprostenol] | 103% | -0.837% |
| Oc1c(Cl)cc(Cl)c2cccnc12 | 130% | -0.443% |
| C=CC1=C(C(=O)O)N2C(=O)[C@@H](NC(=O)/C(=N\O)c3csc(N)n3)[C@H]2SC1 | 105% | -1.2% |
| O=C(CCNNC(=O)c1ccncc1)NCc1ccccc1 [nialamide] | 94.9% and 91.1% | 2.05% and -0.74% |
| CC(NCCc1ccc(O)cc1)C(O)c1ccc(O)cc1 (stereo unspecified) [ritodrine] | 117% and 97.9% | -1.18% and -5.33% |
| CC1CC(=O)NN=C1c1ccc(NN=C(C#N)C#N)cc1 (stereo unspecified) [simendan] | 115% | -8.08% |
| CC(C(=O)O)c1ccc2c(c1)CC(C(C)C)C2 (stereo unspecified) [isoprofen] | 82.9% | -5.14% |
| C[C@@H]1C/C=C/C=C/C=C/C=C/[C@H](O[C@@H]2O[C@H](C)[C@@H](O)[C@H](N)[C@@H]2O)C[C@@H]2O[C@](O)(C[C@@H](O)C[C@H]3O[C@@H]3/C=C/C(=O)O1)C[C@H](O)[C@H]2C(=O)O [Natacyn] | 106% | -5.38% |
| CCN1CCC(=C2c3ccccc3CCc3ccccc32)C1C (stereo unspecified) [piroheptine] | 98.3% | 1.45% |
| CCNC(=O)[C@@H]1CCCN1C(=O)[C@H](CCCNC(=N)N)NC(=O)[C@H](CC(C)C)NC(=O)[C@@H](CC(C)C)NC(=O)[C@H](Cc1ccc(O)cc1)NC(=O)[C@H](CO)NC(=O)[C@H](Cc1c[nH]c2ccccc12)NC(=O)[C@H](Cc1c[nH]cn1)NC(=O)[C@@H]1CCC(=O)N1 [leuprorelin] | 85% | -4.21% |
| CNC(=O)[C@H](Cc1c[nH]c2ccccc12)NC(=O)[C@@H](CC(=O)NO)CC(C)C [ilomastat] | 64.2% | -4.66% |
| Oc1c(I)cc(Cl)c2cccnc12 [clioquinol] | 101% | -5.7% |
| C[C@@H](O)[C@H]1C(=O)N2C(C(=O)O)=C(S[C@@H]3CN[C@H](C(=O)N(C)C)C3)[C@H](C)[C@H]12 [Meropenem] | 81.4% | -2.93% |
| Cn1nnc2c(C(N)=O)ncn2c1=O [temozolomide] | 72.9% and 71% | -2.68% and 0.165% |
| CC(C)C[C@H](NC(=O)[C@@H](Cc1ccc2ccccc2c1)NC(=O)[C@H](Cc1ccc(O)cc1)NC(=O)[C@H](CO)NC(=O)[C@H](Cc1c[nH]c2ccccc12)NC(=O)[C@H](Cc1cnc[nH]1)NC(=O)[C@@H]1CCC(=O)N1)C(=O)N[C@@H](CCCN=C(N)N)C(=O)N1CCC[C@H]1C(=O)NCC(N)=O [nafarelin] | 91.5% | 0.81% |
| CCCSc1nc(N[C@@H]2C[C@H]2c2ccc(F)c(F)c2)c2nnn([C@@H]3C[C@H](OCCO)[C@@H](O)[C@H]3O)c2n1 [Brilinta] | 107% | -1.53% |
| NC(=O)c1cccnc1 [nicotinamide] | 91.9% | -2.83% |
| CN(C)CC/C=C1/c2ccccc2COc2ccc(CC(=O)O)cc21 [Olopatadine] | 101% | 0.0519% |
| Cc1c(C)c2c(c(C)c1O)CCC(C)(COc1ccc(CC3SC(=O)NC3=O)cc1)O2 (stereo unspecified) [troglitazone] | 92.4% | -4.25% |
| CO[C@@]1(NC(=O)Cc2cccs2)C(=O)N2C(C(=O)O)=C(COC(N)=O)CS[C@@H]21 [cefoxitin] | 79% | -14.5% |

| SMILES | mCherry [1] | percent effect [2] |
| --- | --- | --- |
| CC(=O)Nc1ccc(O)cc1 [paracetamol] | 99.9% | -8.91% |
| CN[C@@H]1[C@H](O[C@H]2[C@H](O[C@H]3[C@H](O)[C@@H](O)[C@H](N=C(N)N)[C@@H](O)[C@@H]3N=C(N)N)O[C@@H](C)[C@]2(O)C=O)O[C@@H](CO)[C@H](O)[C@H]1O [streptomycin] | 104% | -1.23% |
| N#CC(c1ccc(Cl)cc1)c1ccc(-n2ncc(=O)[nH]c2=O)cc1Cl (stereo unspecified) [clazuril] | 107% | 0.981% |
| OC(CCN1CCCC1)(c1ccccc1)C1CCCCC1 (stereo unspecified) [procyclidine] | 98% | -0.798% |
| CC(C)(C)NCC(O)COc1cccc2c1C[C@H](O)[C@H](O)C2 (stereo partly specified) | 89% | 1.03% |
| CN(C)c1cc(NC(=O)CNC(C)(C)C)c(O)c2c1C[C@H]1C[C@H]3[C@H](N(C)C)C(=O)C(C(N)=O)=C(O)[C@@]3(O)C(=O)C1=C2O [tigecycline] | 131% | 3.47% |
| N[C@@H](CCC(=O)N[C@@H](CS)C(=O)NCC(=O)O)C(=O)O | 129% | 0.689% |
| CC[C@H](NC(=O)c1c(O)c(-c2ccccc2)nc2ccccc12)c1ccccc1 [talnetant] | 87.2% | -9.59% |
| Cc1c(NC(=O)c2cccnc2)c(=O)n(-c2ccccc2)n1C [nifenazone] | 99.5% | -0.565% |
| OCC(S)CS (stereo unspecified) [dimercaprol] | 65.3% | -3.57% |
| CC1(C)S[C@@H]2[C@H](NC(=O)COc3ccccc3)C(=O)N2[C@H]1C(=O)O | 95.4% | 3.24% |
| CN1C(C)(C)CCCC1(C)C [pempidine] | 97.2% | -0.795% |
| CC(C)(Oc1ccc(Cl)cc1)C(=O)O [clofibric acid] | 87% | -0.642% |
| CC(C)CCCC(C)NC(C)C (stereo unspecified) [iproheptine] | 101% | -3.2% |
| CCC(=O)Oc1ccc2c(c1)CC[C@@H]1[C@@H]2CC[C@]2(C)[C@@H](OC(=O)CC)CC[C@@H]12 | 106% | -2.7% |
| Clc1ccccc1CN1CCc2sccc2C1 [Ticlopidine] | 79% | -2.09% |
| Nc1nc(=O)c2nc(CNc3ccc(C(=O)N[C@@H](CCC(=O)O)C(=O)O)cc3)cnc2[nH]1 | 82% | -0.766% |
| CCCCOCCOCCOCc1cc2c(cc1CCC)OCO2 | 95.6% | -7.4% |
| Nc1nc2c(c(=O)[nH]1)C[C@@H](CCc1ccc(C(=O)N[C@@H](CCC(=O)O)C(=O)O)cc1)CN2 [lometrexol] | 63.3% | -10.7% |
| O=C(Oc1cccc2cccnc12)c1ccccc1 [benzoxiquine] | 105% | -0.996% |
| CCN1CCN(C(=O)N[C@@H](C(=O)N[C@@H]2C(=O)N3C(C(=O)O)=C(CSc4nnnn4C)CS[C@H]23)c2ccc(O)cc2)C(=O)C1=O [Cefoperazone acid] | 58.1% | -3.65% |
| CC(=O)Oc1cc2c(s1)CCN(C(C(=O)C1CC1)c1ccccc1F)C2 (stereo unspecified) [prasugrel] | 117% | -2.06% |
| Cc1cc(CC(C)CC(C)(C)C)n(O)c(=O)c1 (stereo unspecified) | 36.5% | -8.22% |

| SMILES | mCherry [1] | percent effect [2] |
| --- | --- | --- |
| CCC(=O)O[C@@H](O[P@](=O)(CCCCc1ccccc1)CC(=O)N1C[C@H](C2CCCCC2)C[C@H]1C(=O)O)C(C)C [Fosinopril] | 84.3% | 10.6% |
| CN1CCC(=C2c3ccccc3CCc3sccc32)CC1 | 99.4% | -2.18% |
| COc1c(O[C@@H]2O[C@H](CO)[C@@H](O)[C@H](O)[C@H]2O)cc2c(c1OC)-c1ccc(SC)c(=O)cc1[C@@H](NC(C)=O)CC2 [thiocolchicoside] | 124% | -3.8% |
| Clc1cccc(Cl)c1NC1=NCCN1 [clonidine] | 97.7% | -2.02% |
| CCCCC1C(=O)NN(c2ccccc2)C1=O (stereo unspecified) [mofebutazone] | 52.1% | -1.02% |
| Oc1c(Br)cc(Br)c2cccnc12 [broxyquinoline] | 99.6% | -1.49% |
| CCc1cc2c(cc1CC)CC(NC[C@H](O)c1ccc(O)c3[nH]c(=O)ccc13)C2 [Indacaterol] | 104% | 2.92% |
| CC(C)(C(=O)O)c1ccc(C(O)CCCN2CCC(C(O)(c3ccccc3)c3ccccc3)CC2)cc1 (stereo unspecified) | 86.5% | 0.212% |
| O=C(O)[C@H](CCc1ccccc1)N[C@H]1CCCN2CCC[C@@H](C(=O)O)N2C1=O [cilazaprilat] | 90.8% | -5.34% |
| OCCOCCN1CCN(C(c2ccccc2)c2ccccc2)CC1 [decloxizine] | 126% | -4.93% |
| CSc1ccc2c(c1)C(N1CCN(C)CC1)Cc1ccccc1S2 (stereo unspecified) | 128% | 2.57% |
| CC(=O)S[C@@H]1CC2=CC(=O)CC[C@]2(C)[C@H]2CC[C@@]3(C)[C@@H](CC[C@@]34CCC(=O)O4)[C@H]12 [spironolactone] | 97% and 101% | -1.12% and -8.88% |
| N=C(N)NCCN1CCCCCCC1 [guanethidine] | 90.8% | -2.5% |
| CCCCCC(C)NCc1c(C)cc(C)cc1C (stereo unspecified) [trimexiline] | 135% | 4.62% |
| NC(=O)CCCCC1CCSS1 (stereo unspecified) | 109% | -0.0133% |
| Cc1cc(C)cc(OCC2CNC(=O)O2)c1 (stereo unspecified) [metaxalone] | 88.8% | 0.663% |
| Cc1cc2c(cc1S(N)(=O)=O)S(=O)(=O)CCC2 [meticrane] | 92.1% | -0.486% |
| CCOC(=O)CCC(=O)O[C@H]1[C@H](O[C@@H]2[C@@H](C)[C@H](O[C@H]3C[C@@](C)(OC)[C@@H](O)[C@H](C)O3)[C@@H](C)C(=O)O[C@H](CC)[C@@](C)(O)[C@H](O)[C@@H](C)C(=O)[C@H](C)C[C@@]2(C)O)O[C@H](C)C[C@@H]1N(C)C | 120% | -7.87% |
| COc1ccc2cc1Oc1ccc(cc1)C[C@H]1c3c(cc4c(c3Oc3cc5c(cc3OC)CCN(C)[C@@H]5C2)OCO4)CCN1C | 36.2% | -1.25% |
| COc1cc(NS(=O)(=O)c2ccc(N)cc2)ncn1 [sulfamonomethoxine] | 112% | -2.73% |
| CCOc1ccc(NC(C)=O)cc1 [phenacetin] | 117% | -4.58% |
| CC(=O)Nc1ccc(S(=O)(=O)c2ccc(NC(C)=O)cc2)cc1 [acedapsone] | 81.4% | 3.41% |

A draw from above in order of length of the SMILES, ascending.

| SMILES | mCherry [1] | percent effect [2] |
| --- | --- | --- |
| CCOc1ccc(NC(C)=O)cc1 [phenacetin] | 117% | -4.58% |
| Clc1cccc(Cl)c1NC1=NCCN1 [clonidine] | 97.7% | -2.02% |
| CCCCCC(C)NCc1c(C)cc(C)cc1C (stereo unspecified) [trimexiline] | 135% | 4.62% |
| CC(C)(C(=O)O)c1ccc(C(O)CCCN2CCC(C(O)(c3ccccc3)c3ccccc3)CC2)cc1 (stereo unspecified) | 86.5% | 0.212% |
| CC(=O)S[C@@H]1CC2=CC(=O)CC[C@]2(C)[C@H]2CC[C@@]3(C)[C@@H](CC[C@@]34CCC(=O)O4)[C@H]12 [spironolactone] | 97% and 101% | -1.12% and -8.88% |
